± gives the standard deviation. Only a part is listed here, and it is no random draw. The uncertainty is large for many entries.

The assay deals with EfPiwi piRISC loaded with piRNA #1 (26 nt). Description: pre-steady-state target cleavage rate (min^-1); guide: piRNA #1 5'p-UGAGGUAGUAGGUUGUAUAGUAUCCA; MIWI and MILI are mouse PIWI proteins and EfPiwi is from a freshwater sponge; tags in brackets are library labels; higher = faster piRNA-guided slicing of the target. To be noted: auxiliary factor: 500 nM Ephydatia muelleri Gtsf1. The essentials:
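Active affinity-purified piRISC carrying one synthetic guide (1 nM) was mixed with a transcribed, DNA-blocked target RNA library […] in HEPES–potassium acetate buffer at 33 °C for 0–8 or 0–960 min, with or without 500 nM GTSF1 partner protein. Uncleaved targets were then sequenced and normalised to depth and to weakly complementary targets. Three trials were pooled, and k3 was capped at 0.0001 min^-1. A burst-and-steady-state fit was applied to obtain the pre-steady-state cleavage rate.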
For GGAGACCUAACUAUACAACCUACUAGCCUCA, the “pre-steady-state target cleavage rate” value was 0.00191 ± 0.0053. Then GGAGACCUAUGUAUACCACCUACUACCUCA, with 0.00155 ± 0.0053; and GGAGACCUUACUAUACAUCCUACUUCCUCA, with 0.00308 ± 0.0031.

With GGAGACCAAACUAUACAACCUACUACCUCA, the “pre-steady-state target cleavage rate” value was 0.0177 ± 0.0063.

Take GGAGACCUUACUAUACAACCUACAACCUGA: the “pre-steady-state target cleavage rate” value is 0.00119 ± 0.0036. Consider “GGAGACCUAUCUAUACAACCUAGAUGGAGA [g9:g20:cont:t1A]”, for which the “pre-steady-state target cleavage rate” value is 0.00107 ± 0.0043. As to GGAGUGGAUACCAUACAACCUACUACCUCA, the “pre-steady-state target cleavage rate” value was 0.157 ± 0.051. Turning to GGAGACGAUACUAUACAACCCACUACCUCA, the “pre-steady-state target cleavage rate” value worked out at 0.00638 ± 0.0022. In the case of GGAGACGAUACUAUAGUUCCUACUACCUCA it was 0.00239 ± 0.0033; in that of GGAGACGAUACUAUACAACCUACUAGCCUCA, 0.00485 ± 0.002. In the case of GGAGACCUAUGAUAUGUUGCUCCUACCUCA it was 0.000557 ± 0.011. With GGAGACCAUACUAUACAACCUACUAGCUCA, the “pre-steady-state target cleavage rate” value was 0.00491 ± 0.0023. With GGAGACGAUACUAUACAAUCUACUACCUCA, the “pre-steady-state target cleavage rate” value turned out to be 0.00912 ± 0.0039. GGAGACCUUACUAUACUACCUAGUACCUCA: the “pre-steady-state target cleavage rate” value was found to be 0.00194 ± 0.0024. Take GGAGAGGAUACUAUAGAACCUACUUCCUCA: the “pre-steady-state target cleavage rate” value turned out to be 0.00187 ± 0.0023. For GGAGACCUAACUAUACAACCUACUACCUA, the “pre-steady-state target cleavage rate” value was found to be 0.0706 ± 0.025. Turning to GGAGAGGAUACCUAUACAACCUACUACCUCA, the “pre-steady-state target cleavage rate” value was determined as 0.0826 ± 0.033.

As for GGAGACCAUACUAUACUACCUACUACCUGA, the “pre-steady-state target cleavage rate” value is 0.00271 ± 0.0014.

GGAGACCUUACUAUACAAGCUUCUACCUCA: the “pre-steady-state target cleavage rate” value amounted to 0.00239 ± 0.0025.

With GGAGACCUAUCUAGACAACCUACUACCUCA, the “pre-steady-state target cleavage rate” value worked out at 0.00289 ± 0.0042. Regarding GGAGAGGAUACUAUACAACCUACUACCUCCA, the “pre-steady-state target cleavage rate” value amounted to 0.142 ± 0.054. With GGAGACGAUACAAUACAACCAACUACCUCA, the “pre-steady-state target cleavage rate” value stood at 0.0037 ± 0.0029. Then GGAGACCUUAGUAUACAACCUACUACCUGA, with 0.00359 ± 0.0036; and GGAGAGGAUACUAUAGUUCCUACUACCUCA, with 0.00146 ± 0.0063.

The record behind these values is the supplement of paper PMC10338343.
